These are yes or no findings as the source states them, for the method shown. Binding seen in cells or lysates may run through a third protein. Some entries that bind do so weakly or less than the wild type.
Biological target: EGFP-TEV-sNASP (human) (UniProt P49321)
Assay: co-IP + co-sedimentation; GFP-Trap pull-down of eGFP-sNASP from transiently transfected HEK293-F cells, TEV release, 4–20% glycerol gradient (240,000 × g, 14 hr, 4°C); SDS-PAGE, silver stain and Western blot of fractions

Amino acid sequences for entries named in this document (tags omitted).
UniProt Q9NVP2: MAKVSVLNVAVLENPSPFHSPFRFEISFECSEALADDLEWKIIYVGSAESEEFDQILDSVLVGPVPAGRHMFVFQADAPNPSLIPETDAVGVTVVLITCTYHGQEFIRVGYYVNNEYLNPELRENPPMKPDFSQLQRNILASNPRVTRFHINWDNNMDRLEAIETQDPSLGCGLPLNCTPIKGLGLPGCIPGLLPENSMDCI
UniProt O14929: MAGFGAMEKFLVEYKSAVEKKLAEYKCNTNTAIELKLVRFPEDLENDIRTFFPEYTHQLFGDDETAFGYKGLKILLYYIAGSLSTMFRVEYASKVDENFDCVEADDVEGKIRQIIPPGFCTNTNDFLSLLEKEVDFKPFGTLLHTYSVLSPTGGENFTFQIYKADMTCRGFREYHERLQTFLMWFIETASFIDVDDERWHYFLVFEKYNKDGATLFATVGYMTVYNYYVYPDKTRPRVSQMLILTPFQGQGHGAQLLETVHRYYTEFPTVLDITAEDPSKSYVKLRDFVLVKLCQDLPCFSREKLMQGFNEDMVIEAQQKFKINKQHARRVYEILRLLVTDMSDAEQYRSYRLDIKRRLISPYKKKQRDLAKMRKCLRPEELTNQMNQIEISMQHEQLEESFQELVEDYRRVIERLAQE

| binding | Substance |
| --- | --- |
| binds | ASF1B (from UniProt Q9NVP2 1-202) |
| binds | HAT1 (from UniProt O14929 1-419) |

Source: PMC9560165
